Laboratory results: PubChem BioAssay AID504791 (Drosophila RNAi Screening Center, 2011)

Screen: 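Genes whose knock-down strengthens or weakens small-RNA reporter silencing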 (primary screen)
Cells: Drosophila S2-derived reporter cells
Knock-down reagent: long dsRNA against Drosophila genes, about 150-250 ng dsRNA per well (siRNA assay); about 80-120 ng (miRNA assay)
Time to read-out: about 5 days (siRNA assay); about 4 days (miRNA assay)
Challenge: copper sulfate induction of reporters: 25 µM (siRNA assay); 200 mM stated (miRNA assay), 1-2 days before reading
Measurement: 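Per-well ratio of Renilla over firefly light, expressed relative to that plate's average ratio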
Hit rule: 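First-pass picks had plate-scaled ratios over 1.5 for the siRNA assay, over 1.6 for the miRNA assay, or under 0.6; two distinct dsRNAs had to score alike on retest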
The deposit covers about 23,000 reagents; this is a random part of those that have a named target and a result. In the full data, 199 (0.86%) were called active. 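Plate-scaled ratios behind the calls are not deposited; printed light signals are raw; many rows marked increased or decreased are still called inactive.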 Entries without a mark were called inactive. The numbers tell different reagents against one gene apart. A plus sign joins genes that one reagent is predicted to hit. Further read-outs or replicates are left out here. Not given: the direction of the score.

predicted target | reagent no. | stable siRNA reporter change | miRNA reporter change | stable assay Renilla, run 1 (luminescence)
CG3402 | 1 | – | – | 11026
CG7295 | 1 | – | – | 8323
RpL19 | 1 | – | – | 21802
CG10822 | 1 | – | – | 6794
FASN3 | 1 | – | – | 5987
CG31010 | 1 | – | – | 7094
PolA1 | 1 | – | – | 13792
cup | 1 | – | – | 2.10e5
Smvt | 1 | – | – | 7859
Plekhm1 | 1 | – | – | 6124
ND6 (retired record) | 1 | – | – | 4679
nesd | 1 | – | – | 8454
CG7724 | 1 | – | – | 10377
CG34175 | 1 | reporter ratio lowered past the hit cutoff | – | 9613
Cpr97Eb | 1 | – | – | 6107
CG6696 | 1 | – | – | 6404
LpR1 | 1 | – | – | 7835
LpR1 | 2 | – | – | 6934
LpR1 | 3 | – | – | 7075
mRNA-cap | 1 | – | – | 4511
CG17560 | 1 | – | – | 8061
D | 1 | – | – | 8104
Spn28Dc | 1 | – | – | 8443
CG3529 | 1 | – | – | 8284

Not a retest: an excerpt of the list.
predicted target | reagent no. | stable siRNA reporter change | miRNA reporter change | stable assay Renilla, run 1 (luminescence)
LpR1 | 2 | – | – | 6934
LpR1 | 3 | – | – | 7075
mRNA-cap | 1 | – | – | 4511

More results:
predicted target | reagent no. | stable siRNA reporter change | miRNA reporter change | stable assay Renilla, run 1 (luminescence)
CG31278 | 1 | – | – | 6744
CG31777 | 1 | – | – | 5784
Ilp4 | 1 | – | – | 6923
Or30a | 1 | – | – | 6958
Trp1 | 1 | – | – | 7315
LysB | 1 | – | – | 5854
l(2)efl | 1 | – | – | 1.60e5
Lhr | 1 | – | – | 8257
CG33333 | 1 | – | – | 3311
cyr | 1 | – | – | 4966
cyr | 2 | – | – | 5435
cyr | 3 | – | – | 6007
Phae2 | 1 | – | – | 6740
CG11889 + CG11891 | 1 | – | – | 6831
CG11889 + CG11891 | 2 | – | – | 8427
bai | 1 | – | – | 6516
Ube4A | 1 | – | reporter ratio lowered past the hit cutoff | 3.79e5
CG14618 | 1 | – | – | 6626
poe | 1 | – | – | 1.75e5
Fpps | 1 | – | – | 9419
CG4582 | 1 | – | – | 6335
pdm2 | 1 | – | – | 6580
pdm2 | 2 | – | – | 5535
pdm2 | 3 | – | – | 8539
Ugt50B3 | 1 | – | – | 5059
Ugt50B3 | 2 | – | – | 4392
Ugt50B3 | 3 | – | – | 8477
CG13460 | 1 | – | – | 7746
Uxs | 1 | – | – | 6479
CG33648 | 1 | – | – | 5210
glu | 1 | – | – | 28626
CG17734 | 1 | – | – | 3888
SerRS-m | 1 | – | – | 6132
